From article PMC3285579 come the findings set out here.

These are yes or no findings as the source states them, for the method shown.

The test addresses T1, VAB-1 kinase region (669 aa-985 aa), wild type, two-hybrid bait (C. elegans) (UniProt O61460).
T1 sequence: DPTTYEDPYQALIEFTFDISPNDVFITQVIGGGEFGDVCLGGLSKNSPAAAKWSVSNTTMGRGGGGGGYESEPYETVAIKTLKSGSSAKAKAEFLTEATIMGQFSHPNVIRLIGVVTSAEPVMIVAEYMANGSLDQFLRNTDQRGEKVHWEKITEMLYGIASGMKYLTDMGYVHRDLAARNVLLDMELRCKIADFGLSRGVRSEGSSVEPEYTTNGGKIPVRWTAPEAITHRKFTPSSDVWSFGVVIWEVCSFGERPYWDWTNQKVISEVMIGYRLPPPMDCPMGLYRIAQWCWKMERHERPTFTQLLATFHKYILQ
Put plainly: two-hybrid; directed assays: pGBKT7 bait, pGADT7 prey; beta-galactosidase activity measured qualitatively by X-GAL overlay.

B1: VAV-1 SH2 domain, two-hybrid prey (domain or fragment, UniProt Q45FX5 831-925)
chain: WYMGEMERAKAESTLKGTPNGTFLVRYSKNRKQTAISLSYKNDVKHMIIEQNSDGKVYLDEDYIFNSTVELVQYYRSNNLIEIFAALDTCLKNPY
Take B1: the binding result was “no binding”.

B2: ABL-1 SH2 domain, two-hybrid prey (domain or fragment, UniProt P03949 194-284)
chain: WYHGKISRSDSEAILGSGITGSFLVRESETSIGQYTISVRHDGRVFHYRINVDNTEKMFITQEVKFRTLGELVHHHSVHADGLICLLMYPA
For B2, the binding entry is listed as “no binding”.
